{"sequences": {"note": "Chains of the proteins cited; added tags and fusions are not shown.", "UniProt P41595, whole entry A225G": "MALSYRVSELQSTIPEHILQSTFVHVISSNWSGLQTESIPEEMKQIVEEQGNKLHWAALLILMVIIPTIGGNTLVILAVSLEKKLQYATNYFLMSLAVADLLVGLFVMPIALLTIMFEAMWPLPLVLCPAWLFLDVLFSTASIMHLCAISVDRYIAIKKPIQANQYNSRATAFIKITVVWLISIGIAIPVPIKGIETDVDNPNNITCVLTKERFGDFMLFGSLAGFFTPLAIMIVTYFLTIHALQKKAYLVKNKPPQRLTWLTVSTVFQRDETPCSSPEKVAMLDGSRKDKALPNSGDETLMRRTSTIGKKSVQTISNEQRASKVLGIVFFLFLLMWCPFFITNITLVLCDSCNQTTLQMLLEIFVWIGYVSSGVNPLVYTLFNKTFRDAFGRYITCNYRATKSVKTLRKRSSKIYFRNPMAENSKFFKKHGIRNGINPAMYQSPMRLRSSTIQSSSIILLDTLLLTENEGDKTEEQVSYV", "UniProt P41595, whole entry": "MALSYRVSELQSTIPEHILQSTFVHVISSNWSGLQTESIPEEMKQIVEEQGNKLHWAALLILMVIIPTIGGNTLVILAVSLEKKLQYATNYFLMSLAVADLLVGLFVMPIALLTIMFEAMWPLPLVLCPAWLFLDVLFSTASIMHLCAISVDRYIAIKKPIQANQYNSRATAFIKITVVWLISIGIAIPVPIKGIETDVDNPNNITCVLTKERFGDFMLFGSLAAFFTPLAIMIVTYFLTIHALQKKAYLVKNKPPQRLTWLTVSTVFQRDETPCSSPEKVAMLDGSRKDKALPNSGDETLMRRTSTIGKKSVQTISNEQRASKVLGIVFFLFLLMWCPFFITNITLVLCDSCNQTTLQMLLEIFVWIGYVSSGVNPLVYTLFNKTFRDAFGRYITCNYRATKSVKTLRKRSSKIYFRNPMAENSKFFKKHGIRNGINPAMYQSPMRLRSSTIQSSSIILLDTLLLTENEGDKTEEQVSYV"}, "source": "paper PMC6237183", "about": "(Nature structural & molecular biology, 2018)", "key": {"5-HT2BR A225G^5.46 [1]": {"biological_target": "T1, 5-HT2BR A225G^5.46 (Homo sapiens, UniProt P41595, A225G)", "test": "Gq-mediated calcium flux FLIPR assay", "settings": "Gq calcium flux EC50, A225G^5.46 mutant"}, "5-HT2BR wild-type": {"biological_target": "5-HT2BR wild-type (Homo sapiens, UniProt P41595)", "test": "Gq-mediated calcium flux FLIPR assay"}, "5-HT2BR A225G^5.46 [2]": {"biological_target": "T1, 5-HT2BR A225G^5.46", "test": "β-Arrestin2 recruitment Tango assay"}}, "note": "pEC50, pIC50: −log10 of the molar value. Values joined by “and” are separate entries in the source; they are usually repeats but may differ in a detail not shown here. Equal entries are not always repeated."}
{"smiles": "CC[C@@H](CO)NC(=O)[C@@H]1C=C2c3cccc4c3c(cn4C)C[C@H]2N(C)C1", "note": "[methysergide]", "values": [{"measurement": "pEC50", "setting": "5-HT2BR A225G^5.46 [1]", "result": "7.92 and 7.48"}, {"measurement": "pIC50", "setting": "5-HT2BR wild-type", "result": 8.62}, {"measurement": "pEC50", "setting": "5-HT2BR A225G^5.46 [2]", "result": 8.77}]}
